Test results as given in patent US20250019449A1.
No constants are given. Whether binding was seen depends on the method and setting. Some binding calls cover weakened binding; strength is not graded here. Blank lines part the entries; values can stand above or below the binder they belong to.

Protein sequences, listed by entry. Tags and fused reporters are not part of them. Lines headed by an entry give the natural chain unless they say otherwise; changes in a name come on top. Chains listed by the source or under a name are the forms on record and can include a tag or linker.
cynomolgus monkey CCR8 (G7NYJ2, form named): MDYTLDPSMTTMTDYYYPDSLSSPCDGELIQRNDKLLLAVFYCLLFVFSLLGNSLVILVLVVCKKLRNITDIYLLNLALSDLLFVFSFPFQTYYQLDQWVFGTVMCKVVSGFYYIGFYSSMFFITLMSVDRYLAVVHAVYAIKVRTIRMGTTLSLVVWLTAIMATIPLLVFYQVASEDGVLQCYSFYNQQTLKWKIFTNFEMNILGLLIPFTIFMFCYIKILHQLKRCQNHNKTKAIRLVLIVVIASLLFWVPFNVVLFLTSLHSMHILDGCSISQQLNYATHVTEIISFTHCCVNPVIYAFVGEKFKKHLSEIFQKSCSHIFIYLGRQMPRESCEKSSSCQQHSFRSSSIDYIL

Target: cynomolgus monkey CCR8 (cynomolgus monkey) (UniProt G7NYJ2)
Test: binding to mammalian cells expressing cynomolgus monkey CCR8

binding: binds
B1: ADI-40327 (antibody, V domains shown)
VH: QVQLQESGPGLVKPSETLSLTCAVSGYSISSGYYWGWIRQPPGKGLEWIGSIYHSGNTYYRPSLKSRVTISVDTSKNQFSLKLSSVTAADTAVYYCARGKGGSWTAFGPWGQGTLVTVSS
VL: DIQMTQSPSSLSASVGDRVTITCRASQSISSFLNWYQQKPGKAPKLLISAASSLQSGVPSRFSGSGSGTDFTLTISSLQPEDFATYYCQQGHSTPPTFGGGTKVEIK

binding: binds
B2: ADI-46663 (antibody, V domains shown)
VH: EVQLVESGGGLVQPGGSLRLSCAASGFTFNAYAMNWVRQAPGKGLEWVARIRSKSNNYATYYADSVKDRFTISRDDSKNSLYLQMNSLKTEDTAVYYCVRQSYGNSNYAMDYWGQGTTVTVSS
VL: DIVMTQSPLSLPVTPGEPASISCRSSKSLLHSNGNTYLYWYLQKPGQSPQLLIYRMSNLASGVPDRFSGSGSGTDFTLKISRVEAEDVGVYYCMQHLEYPFTFGGGTKVEIK

binding: binds
B3: ADI-35281 (antibody, V domains shown)
VH: EVKLEQSGGGLVQPKGSLKLSCVASGFTFNAYAMNWVRQAPGQGLEWVARIRSKSNNYATYYAASVKDRFTISRDDSQSILYLQMNNLKTEDTAMYYCVRQSYGNSNYAMDYWGQGTTVTVSS
VL: DIQLTQSPPSVPVTPGESVSISCRSSKSLLHSNGNTYLYWFLQRPGQSPQLLIYRKSNLASGVPDRFSGSGSGTAFTLRISRVEAEDVGVYYCMQHLEYPFTFGGGTKLEIK
